Experimental findings from PMC8989681, “Functional and structural deficiencies of Gemin5 variants associated with neurological disorders” (Life Science Alliance, 2022) are described below.

The target in one assay is T1, G5_(845-1508)-L1367P-TAP (human, UniProt Q8TEQ6 845-1508, L1367P).
T1 construct: Vector pcDNA3-CTAP; Expressed at lower levels than the WT; also called RBS1 variant L1367P; source: HEK293, transfected, in soluble cell extract; purified by TAP
T1 sequence (looked up): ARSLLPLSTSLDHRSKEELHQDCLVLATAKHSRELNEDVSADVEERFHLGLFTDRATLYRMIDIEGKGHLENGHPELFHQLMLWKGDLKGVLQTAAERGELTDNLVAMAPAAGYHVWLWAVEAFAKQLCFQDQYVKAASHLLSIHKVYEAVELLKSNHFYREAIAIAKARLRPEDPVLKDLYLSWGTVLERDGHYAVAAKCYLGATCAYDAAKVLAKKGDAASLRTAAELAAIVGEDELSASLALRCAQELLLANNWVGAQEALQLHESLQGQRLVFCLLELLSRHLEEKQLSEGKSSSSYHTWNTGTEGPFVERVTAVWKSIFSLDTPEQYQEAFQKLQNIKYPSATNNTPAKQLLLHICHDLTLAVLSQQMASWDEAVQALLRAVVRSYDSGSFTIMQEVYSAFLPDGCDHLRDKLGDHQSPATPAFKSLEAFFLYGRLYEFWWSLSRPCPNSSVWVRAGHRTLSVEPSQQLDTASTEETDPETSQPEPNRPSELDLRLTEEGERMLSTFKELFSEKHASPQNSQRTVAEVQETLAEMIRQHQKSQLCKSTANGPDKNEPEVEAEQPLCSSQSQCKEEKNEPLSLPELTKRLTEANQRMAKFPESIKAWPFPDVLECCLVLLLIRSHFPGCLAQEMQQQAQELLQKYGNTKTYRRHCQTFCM
The assay can be described thus: co-IP; G5_(845-1508)-TAP baits expressed 24 h in HEK293; complexes purified by TAP (IgG Sepharose, TEV protease, calmodulin); endogenous Gemin5 and bait detected by WB with anti-Gemin5; Gemin5 intensity normalised to the purified bait.

The target of assay [1] is G5_(845-1508)-WT-TAP (human) (UniProt Q8TEQ6). The assay is described as above.

These are yes or no findings as the source states them, for the method shown. Binding seen in cells or lysates may run through a third protein. Some binding calls cover weakened binding; strength is not graded here.

B1: endogenous Gemin5 protein (natural protein, human (endogenous in HEK293), UniProt Q8TEQ6 1-1508, looked up)
chain: MGQEPRTLPPSPNWYCARCSDAVPGGLFGFAARTSVFLVRVGPGAGESPGTPPFRVIGELVGHTERVSGFTFSHHPGQYNLCATSSDDGTVKIWDVETKTVVTEHALHQHTISTLHWSPRVKDLIVSGDEKGVVFCYWFNRNDSQHLFIEPRTIFCLTCSPHHEDLVAIGYKDGIVVIIDISKKGEVIHRLRGHDDEIHSIAWCPLPGEDCLSINQEETSEEAEITNGNAVAQAPVTKGCYLATGSKDQTIRIWSCSRGRGVMILKLPFLKRRGGGIDPTVKERLWLTLHWPSNQPTQLVSSCFGGELLQWDLTQSWRRKYTLFSASSEGQNHSRIVFNLCPLQTEDDKQLLLSTSMDRDVKCWDIATLECSWTLPSLGGFAYSLAFSSVDIGSLAIGVGDGMIRVWNTLSIKNNYDVKNFWQGVKSKVTALCWHPTKEGCLAFGTDDGKVGLYDTYSNKPPQISSTYHKKTVYTLAWGPPVPPMSLGGEGDRPSLALYSCGGEGIVLQHNPWKLSGEAFDINKLIRDTNSIKYKLPVHTEISWKADGKIMALGNEDGSIEIFQIPNLKLICTIQQHHKLVNTISWHHEHGSQPELSYLMASGSNNAVIYVHNLKTVIESSPESPVTITEPYRTLSGHTAKITSVAWSPHHDGRLVSASYDGTAQVWDALREEPLCNFRGHRGRLLCVAWSPLDPDCIYSGADDFCVHKWLTSMQDHSRPPQGKKSIELEKKRLSQPKAKPKKKKKPTLRTPVKLESIDGNEEESMKENSGPVENGVSDQEGEEQAREPELPCGLAPAVSREPVICTPVSSGFEKSKVTINNKVILLKKEPPKEKPETLIKKRKARSLLPLSTSLDHRSKEELHQDCLVLATAKHSRELNEDVSADVEERFHLGLFTDRATLYRMIDIEGKGHLENGHPELFHQLMLWKGDLKGVLQTAAERGELTDNLVAMAPAAGYHVWLWAVEAFAKQLCFQDQYVKAASHLLSIHKVYEAVELLKSNHFYREAIAIAKARLRPEDPVLKDLYLSWGTVLERDGHYAVAAKCYLGATCAYDAAKVLAKKGDAASLRTAAELAAIVGEDELSASLALRCAQELLLANNWVGAQEALQLHESLQGQRLVFCLLELLSRHLEEKQLSEGKSSSSYHTWNTGTEGPFVERVTAVWKSIFSLDTPEQYQEAFQKLQNIKYPSATNNTPAKQLLLHICHDLTLAVLSQQMASWDEAVQALLRAVVRSYDSGSFTIMQEVYSAFLPDGCDHLRDKLGDHQSPATPAFKSLEAFFLYGRLYEFWWSLSRPCPNSSVWVRAGHRTLSVEPSQQLDTASTEETDPETSQPEPNRPSELDLRLTEEGERMLSTFKELFSEKHASLQNSQRTVAEVQETLAEMIRQHQKSQLCKSTANGPDKNEPEVEAEQPLCSSQSQCKEEKNEPLSLPELTKRLTEANQRMAKFPESIKAWPFPDVLECCLVLLLIRSHFPGCLAQEMQQQAQELLQKYGNTKTYRRHCQTFCM
notes: Gemin5, human, full-length endogenous protein of HEK293 cells; also called full-length Gemin5; source: endogenous, HEK293 soluble cell extract
B1: the binding entry (in the assay with G5_(845-1508)-L1367P-TAP; in assay [1]) was “binds” each time.
